Reference: PubChem BioAssay AID1224828 (NIAID, 2016)
Purpose: 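Knock-downs that increase or decrease LPS-induced p65 nuclear translocation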 (primary screen). System: mouse RAW264.7 G9 macrophage reporter cells (GFP-p65, Tnf promoter-mCherry). Reagent: siRNA pool against mouse genes, 100 nM. Timing: 2 days siRNA transfection, then 40 min LPS before fixation. Challenge: LPS (Salmonella minnesota R595) at 10 ng/ml. Detection: 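Microscopy ratio of nuclear to perinuclear-ring GFP-p65 signal, scaled to the plate median; gene score is the average of two replicate robust z-scores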. Reading the numbers: p65 translocation robust z-score: higher = more nuclear NF-kappaB p65 after LPS than the plate median; nuclear/cytoplasmic p65 ratio: higher = more nuclear NF-kappaB p65. Hit rule: 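Called active when z exceeds 3.3 or falls under -1.56 (median of Tlr4 controls), giving activity score of at least 50; no calls for control wells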. Calls: active = hit (p65 shift raised or lowered); inactive = no clear change.
The deposit covers about 17,000 reagents; shown is a random part of them. 762 of all reagents (4.5%) were called active. 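Active calls include both raised and lowered p65 entry, mostly lowered; wells with fewer than 50 cells lack a z-score.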 Raw values vary from plate to plate and are shown uncorrected. Reagent sequences are not shown.

no.	gene	p65 translocation robust z-score	nuclear/cytoplasmic p65 ratio, rep 1	nuclear/cytoplasmic p65 ratio, rep 2	low cell count flag	activity call
1	Ndufab1	-0.21	1.81	1.51	enough cells to score	inactive
2	Kcnmb2	0.7	1.67	1.51	enough cells to score	inactive
3	Anxa13	0.49	1.72	1.67	enough cells to score	inactive
4	Siglece	-0.63	1.29	1.21	enough cells to score	inactive
5	Dym	1.85	1.53	1.71	enough cells to score	inactive
6	Card19	0.6	1.57	1.58	enough cells to score	inactive
7	Apoe	-1.18	1.54	1.34	enough cells to score	inactive
8	Matcap2	0.03	1.49	1.49	enough cells to score	inactive
9	Hsf3	0.3	1.53	1.67	enough cells to score	inactive
10	Actrt2	-1.31	1.38	1.36	enough cells to score	inactive
11	Aldh7a1	-0.19	1.62	1.56	enough cells to score	inactive
12	Gpsm2	-0.62	1.43	1.48	enough cells to score	inactive
13	Gnb1l	0.16	1.7	1.54	enough cells to score	inactive
14	Gnb5		1.01	1.15	fewer than 50 cells per well; well left out of scoring	inactive
15	Or1q1	-2.49	1.23	1.27	enough cells to score	active
16	Smarcal1	0.99	1.66	1.74	enough cells to score	inactive
17	Nop56	1.54	2.01	1.7	enough cells to score	inactive
18	Tmem45a2		1.02	0.946	fewer than 50 cells per well; well left out of scoring	inactive
19	Ccl2	0.92	1.64	1.45	enough cells to score	inactive
20	Gmpr2	-0.44	1.43	1.27	enough cells to score	inactive
21	Kdm4c	-0.42	1.57	1.3	enough cells to score	inactive
22	Ubr2	0.71	1.61	1.44	enough cells to score	inactive
23	Sds	-0.2	1.3	1.2	enough cells to score	inactive
24	Wdpcp	0.27	1.32	1.62	enough cells to score	inactive
25	Sf3b2		1.1	1.02	fewer than 50 cells per well; well left out of scoring	inactive
26	Cdh11	1.03	1.76	1.37	enough cells to score	inactive
27	Lpcat3	-0.44	1.57	1.49	enough cells to score	inactive
28	Irgm2	-0.5	1.58	1.56	enough cells to score	inactive
29	Atp9b	1.35	1.65	1.86	enough cells to score	inactive
30	Ola1	1.28	1.39	1.4	enough cells to score	inactive
31	Krt7	-0.46	1.36	1.37	enough cells to score	inactive
32	Or4a39	0.33	1.73	1.41	enough cells to score	inactive
33	Guca2b	-0.5	1.29	1.38	enough cells to score	inactive
34	Or5t15	-0.67	1.57	1.47	enough cells to score	inactive
35	Bcat2	-0.38	1.55	1.56	enough cells to score	inactive
36	Rp9	0.97	1.51	1.36	enough cells to score	inactive
37	Alkbh7		1.32	1.24	fewer than 50 cells per well; well left out of scoring	inactive
38	F3	0.99	1.65	1.44	enough cells to score	inactive
39	Rhox6	-0.11	1.33	1.21	enough cells to score	inactive
40	Ankrd27	0.02	1.59	1.29	enough cells to score	inactive
41	Stxbp2		1.22	1.09	fewer than 50 cells per well; well left out of scoring	inactive
42	Pnlip	0.23	1.63	1.34	enough cells to score	inactive
43	Prkci	-0.04	1.74	1.33	enough cells to score	inactive
44	Prkaca		1.67	1.22	fewer than 50 cells per well; well left out of scoring	inactive
45	Cyp1a1	1.34	1.7	1.52	enough cells to score	inactive
46	Ifitm7	-1.13	1.38	1.13	enough cells to score	inactive
47	Fxn	-0.66	1.47	1.39	enough cells to score	inactive
48	Chic2	0.03	1.46	1.38	enough cells to score	inactive
49	Mief1	0.51	1.74	1.71	enough cells to score	inactive
50	Tank	0.3	1.56	1.46	enough cells to score	inactive
51	Rpl39l	-0.27	1.25	1.25	enough cells to score	inactive
52	Ccser1	-0.11	1.27	1.53	enough cells to score	inactive
53	HMGB2	-1.93	1.27	1.28	enough cells to score	active
54	Oasl2	-0.28	1.65	1.51	enough cells to score	inactive
55	Sycn	0.93	1.45	1.32	enough cells to score	inactive
56	Srp19	-0.75	1.23	1.22	enough cells to score	inactive
57	H2ax	0.99	1.56	1.51	enough cells to score	inactive
58	Adm	-0.36	1.61	1.52	enough cells to score	inactive
59	Lbh	1.95	1.72	1.79	enough cells to score	inactive
60	Or7g28		1.24	1.35	fewer than 50 cells per well; well left out of scoring	inactive
61	Zdhhc7		1.42	1.08	fewer than 50 cells per well; well left out of scoring	inactive
62	Mapre1	0.08	1.54	1.28	enough cells to score	inactive
63	Tspan2	0.26	1.38	1.52	enough cells to score	inactive
64	Krtap4-13		1.39	1.23	fewer than 50 cells per well; well left out of scoring	inactive
65	Cers6	0.97	1.67	1.58	enough cells to score	inactive
66	Sp6		1.23	1.02	fewer than 50 cells per well; well left out of scoring	inactive
67	Irf4	-0.11	1.46	1.37	enough cells to score	inactive
68	Tap1	-1.26	1.31	1.37	enough cells to score	inactive
69	Mad2l1bp	2.15	2.05	1.86	enough cells to score	inactive
70	Srms		2.22	1.54	fewer than 50 cells per well; well left out of scoring	inactive
71	Pip5k1b	0.95	1.66	1.51	enough cells to score	inactive
72	Tacc2	0.52	1.57	1.62	enough cells to score	inactive
73	Pdia4	2.44	1.96	2	enough cells to score	inactive
74	Riox1		1.28	1.35	fewer than 50 cells per well; well left out of scoring	inactive
75	Camk2d	-1.1	1.43	1.31	enough cells to score	inactive

An excerpt from above, limited to “nuclear/cytoplasmic p65 ratio, rep 2”:
Adm	1.52
Lbh	1.79
Or7g28	1.35
Zdhhc7	1.08
